This is one part of the list.

The target in this experiment is T1, OsSMF1 (Oryza sativa, UniProt Q6ZLB0 1-436).
T1 sequence: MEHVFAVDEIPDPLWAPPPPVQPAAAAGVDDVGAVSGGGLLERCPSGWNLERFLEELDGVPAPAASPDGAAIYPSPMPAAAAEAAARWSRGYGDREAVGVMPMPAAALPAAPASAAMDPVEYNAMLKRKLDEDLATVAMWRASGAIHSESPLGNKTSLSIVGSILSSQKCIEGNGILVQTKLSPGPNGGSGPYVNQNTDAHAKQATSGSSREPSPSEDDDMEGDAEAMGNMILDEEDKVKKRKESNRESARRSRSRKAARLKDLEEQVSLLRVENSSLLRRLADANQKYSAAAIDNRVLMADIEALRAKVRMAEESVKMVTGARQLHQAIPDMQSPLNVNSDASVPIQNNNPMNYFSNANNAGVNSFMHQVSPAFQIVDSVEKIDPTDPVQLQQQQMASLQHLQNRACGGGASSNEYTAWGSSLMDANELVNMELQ
The experiment can be described thus: protein-binding microarray (RPBM); PBS, 2% BSA, 51.3 ng/ul salmon testes DNA, 50 uM zinc acetate, 200 nM TF, 25 C, 1 h; high values mean tight binding. The note with it: protein: recombinant; tags: N-terminal polyhistidine and DsRed monomer fusion (pET32a); chain copies: 2; label: CyDye5-dUTP incorporated in the synthesized complementary strand; 3' TTTTT single-stranded linker to array surface; dsDNA, one strand shown. A digest of the protocol:
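In PBS with 2% BSA, salmon testes DNA and 50 µM zinc acetate, 200 nM protein was incubated on a custom Agilent array at 25 °C for 1 h and then washed off. The array had been made double-stranded by primer extension with Cy5-dUTP and blocked with 2% BSA. The proteins were transcription factors fused N-terminally to polyhistidine and DsRed, expressed in E. coli BL21-CodonPlus and purified on Ni–NTA. The binding signal is per-feature fluorescence intensity (arbitrary units) from an Axon 4000B scanner.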
Consider “TTTTAGTTTTCCTCGATTAATTAATACTGTCTTTAAATCTCGGAGTCACCTAGTGCAG”, for which the binding signal was 23300 fluorescence intensity (a.u.).

“CAGGCCTATCTTTGACAGATCAGATTGTCTGATATTCTGACGGAGTCACCTAGTGCAG”: the binding signal was 3270 fluorescence intensity (a.u.).

In the case of “TTGATGTATCAAGCATGGTGACGTTACGTATTATGATTGGCGGAGTCACCTAGTGCAG”, the binding signal is 4900 fluorescence intensity (a.u.).

Regarding “ACCCTGATCGCAAGTCATCTCATCAACCACTGCTACACGTCGGAGTCACCTAGTGCAG”, the binding signal was 3320 fluorescence intensity (a.u.).

For the sequence “TCTCCAGCACCTTGGAACGGGGCTTCGGCCCGAACCGCGGCGGAGTCACCTAGTGCAG”, the binding signal is 27000 fluorescence intensity (a.u.).

For “CCGGGCGCTCCTCTCGTTTCCTGGCCCATCATCCGTCACCCGGAGTCACCTAGTGCAG”, the binding signal is 3300 fluorescence intensity (a.u.).

“CCGTGTCCAAGTCCACAATACAGGTCAGAAAAGCTCGTTTCGGAGTCACCTAGTGCAG”: the binding signal was 3300 fluorescence intensity (a.u.).

As for “TGCCCAAGTCGGTGACTTTGATTGCGCCGCGTGCCTCGCCCGGAGTCACCTAGTGCAG”, the binding signal is 3970 fluorescence intensity (a.u.).

With “CGAATAGCCGCGACCTACGAGGACACCACGTCACGACTTACGGAGTCACCTAGTGCAG”, the binding signal is 8200 fluorescence intensity (a.u.).

With “GATGGCAAGTGCATGGCATGGAAGGGGCCGGTCCATTGATCGGAGTCACCTAGTGCAG”, the binding signal was 19300 fluorescence intensity (a.u.).

Turning to “GTAGGGAACGTGGCTGAAGATGTTCCCACCATTGCTCCAGCGGAGTCACCTAGTGCAG”, the binding signal was 3550 fluorescence intensity (a.u.).

On to “ATGTTTAATCACACGTAATCAGCTGCGGCGGCACCGGAGCCGGAGTCACCTAGTGCAG”, for which the binding signal was 6530 fluorescence intensity (a.u.).

With “TACGGGTTAGGGTTTGGGGTTGGGGTCAAGGTAGGAGGGGCGGAGTCACCTAGTGCAG”, the binding signal was 3500 fluorescence intensity (a.u.).

As to “TGTGCCTAGATAGCGTCGTCAGCCGCTGCCATTGCTGTAACGGAGTCACCTAGTGCAG”, the binding signal was 3140 fluorescence intensity (a.u.).

In the case of “ACTTTTACTTTTGTTCCAGTATTCGCTTAAGGATAGGAATCGGAGTCACCTAGTGCAG”, the binding signal was 12400 fluorescence intensity (a.u.).

For the sequence “CCCCTCCGCCTCGTCCCCATCGGCCACTGCCACCACCGCCCGGAGTCACCTAGTGCAG”, the binding signal was 3700 fluorescence intensity (a.u.).

For “GCCAATCTGTGGGTGCCACGTCACTTTTCACACAGAGGCACGGAGTCACCTAGTGCAG”, the binding signal was 14300 fluorescence intensity (a.u.).

In the case of “TTCATAGGAAAGGAGCTGACTCGCCGCCACCGATCGCCAACGGAGTCACCTAGTGCAG”, the binding signal was 3170 fluorescence intensity (a.u.).

With “GAGGGTGAGTTGGACTGACATGCGGGGCCCACGTGGGTCCCGGAGTCACCTAGTGCAG”, the binding signal was 5560 fluorescence intensity (a.u.).

In the case of “ATCGTGCTAGTATGACTCGTCGCCAAGCCATGCTTGGGCCCGGAGTCACCTAGTGCAG”, the binding signal is 4570 fluorescence intensity (a.u.).

As to “GATCTGTCACTGTATGGAATGATGCAAAGCTGCTGCTGATCGGAGTCACCTAGTGCAG”, the binding signal was 32000 fluorescence intensity (a.u.).

Take “TTCCCCGCCCGCGCACTTGGAAACCTAACCGTCCTCGGTGCGGAGTCACCTAGTGCAG”: the binding signal is 3840 fluorescence intensity (a.u.).

Turning to “ATACATGTTAGGGTGACACACCACTGCTTGCCCGTGTGTTCGGAGTCACCTAGTGCAG”, the binding signal was 4940 fluorescence intensity (a.u.).

With “GAGCACGTACACGTACTCCTCCTCCTACTACGTGATGAGTCGGAGTCACCTAGTGCAG”, the binding signal is 7260 fluorescence intensity (a.u.).

As to “CAGCACCGTCATCGTCGTCGTTGTCGCGCGTCACCGTGAACGGAGTCACCTAGTGCAG”, the binding signal was 5720 fluorescence intensity (a.u.).

For “GAAGAAGAACATGGGCCGTCTCGGTTGCGTCGCGTCACGGCGGAGTCACCTAGTGCAG”, the binding signal is 6130 fluorescence intensity (a.u.).

Consider “AACTCTCTCTCTCCAGCTCCACCTTCTCCGAGGCCGCCATCGGAGTCACCTAGTGCAG”, for which the binding signal was 3210 fluorescence intensity (a.u.).

For “AGGTTTTCAAGAGCTCAGGGAATGGGGATCTGACTGTCAGCGGAGTCACCTAGTGCAG”, the binding signal was 3720 fluorescence intensity (a.u.).

Consider “TGAAAATTTGTACACGTAAGTAATAGATGGTACCAATAGACGGAGTCACCTAGTGCAG”, for which the binding signal is 5890 fluorescence intensity (a.u.).

Turning to “AACAATCCAACAAACCAATCATCTGGACACGCTGTCTCAGCGGAGTCACCTAGTGCAG”, the binding signal is 3370 fluorescence intensity (a.u.).

Turning to “CTCGCGCGGTCGCCTTCTTTATTTGGCTACCTCCTCCTCCCGGAGTCACCTAGTGCAG”, the binding signal is 3460 fluorescence intensity (a.u.).

For the sequence “CCACCGGACGCGCTCGTCCGCGGCCTCTCGGCGGCCACCACGGAGTCACCTAGTGCAG”, the binding signal is 3950 fluorescence intensity (a.u.).

As for “ATCCCAAAATAATGTGTTCGGGTGGGCGGGCGGGAAATATCGGAGTCACCTAGTGCAG”, the binding signal is 3480 fluorescence intensity (a.u.).

On to “TAATTGCACAGTCAGGAGGAAATCACGAGATGAATATTTTCGGAGTCACCTAGTGCAG”, for which the binding signal was 4060 fluorescence intensity (a.u.).

On to “GACAACCAACCATCCGTGTGTACAGCCCTACGTATACTCGCGGAGTCACCTAGTGCAG”, for which the binding signal was 4080 fluorescence intensity (a.u.).

Turning to “GCGGGGCCTCACCCCTTCTCCATGGAGGCCACGGAGGTCGCGGAGTCACCTAGTGCAG”, the binding signal was 4000 fluorescence intensity (a.u.).

Turning to “TCGCCAGTTCCTAACGCATCGTCTTGCCAGGCCTCAATATCGGAGTCACCTAGTGCAG”, the binding signal is 3310 fluorescence intensity (a.u.).

Turning to “GGATCAATTGCTAGTGCCAGCGTTAAGACTTTACATAGTGCGGAGTCACCTAGTGCAG”, the binding signal was 38500 fluorescence intensity (a.u.).

As for “ACTTTTCTTCTGTAACTCCACAGCTACTTTACTCAACATCCGGAGTCACCTAGTGCAG”, the binding signal is 3910 fluorescence intensity (a.u.).

As to “GCGCATGCCACCTAGCTAGTTATATAGGATGTTACATATGCGGAGTCACCTAGTGCAG”, the binding signal was 3410 fluorescence intensity (a.u.).

As to “TCAAAGAAGAAAATGCTCCCTCCTGGGTGCAGTGATGGTTCGGAGTCACCTAGTGCAG”, the binding signal is 31800 fluorescence intensity (a.u.).

For the sequence “GAGACTTTTACACGCATTCCAGTCATCACTAGTGTAGCGGCGGAGTCACCTAGTGCAG”, the binding signal is 6000 fluorescence intensity (a.u.).

The record behind these values is PMC7819943, “Rice protein-binding microarrays: a tool to detect cis-acting elements near promoter regions in rice”.
